Measurements: paper PMC12142535
These are yes or no findings as the source states them, for the method shown. In cells and extracts the contact can be indirect. These calls come from enrichment with a bait or labelling near it, and not all partners need be listed. For part of these data: No binding means not detected with the bait.

Chains of the proteins cited; added tags and fusions are not shown. Residues count along the entry.
UniProt P52480: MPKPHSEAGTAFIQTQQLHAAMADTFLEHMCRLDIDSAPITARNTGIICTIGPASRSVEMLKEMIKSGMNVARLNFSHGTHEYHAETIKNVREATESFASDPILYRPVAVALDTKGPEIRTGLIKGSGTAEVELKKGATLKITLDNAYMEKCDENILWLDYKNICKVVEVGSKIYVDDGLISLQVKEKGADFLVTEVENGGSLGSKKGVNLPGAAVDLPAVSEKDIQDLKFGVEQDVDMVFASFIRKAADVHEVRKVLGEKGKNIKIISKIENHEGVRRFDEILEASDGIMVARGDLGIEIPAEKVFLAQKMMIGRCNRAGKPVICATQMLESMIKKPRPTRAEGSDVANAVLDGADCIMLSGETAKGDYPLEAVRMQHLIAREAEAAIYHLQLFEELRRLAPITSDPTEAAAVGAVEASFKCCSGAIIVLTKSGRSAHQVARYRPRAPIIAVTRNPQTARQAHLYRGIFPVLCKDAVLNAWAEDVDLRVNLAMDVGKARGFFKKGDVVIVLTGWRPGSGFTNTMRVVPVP
UniProt P38647, residues 47-679: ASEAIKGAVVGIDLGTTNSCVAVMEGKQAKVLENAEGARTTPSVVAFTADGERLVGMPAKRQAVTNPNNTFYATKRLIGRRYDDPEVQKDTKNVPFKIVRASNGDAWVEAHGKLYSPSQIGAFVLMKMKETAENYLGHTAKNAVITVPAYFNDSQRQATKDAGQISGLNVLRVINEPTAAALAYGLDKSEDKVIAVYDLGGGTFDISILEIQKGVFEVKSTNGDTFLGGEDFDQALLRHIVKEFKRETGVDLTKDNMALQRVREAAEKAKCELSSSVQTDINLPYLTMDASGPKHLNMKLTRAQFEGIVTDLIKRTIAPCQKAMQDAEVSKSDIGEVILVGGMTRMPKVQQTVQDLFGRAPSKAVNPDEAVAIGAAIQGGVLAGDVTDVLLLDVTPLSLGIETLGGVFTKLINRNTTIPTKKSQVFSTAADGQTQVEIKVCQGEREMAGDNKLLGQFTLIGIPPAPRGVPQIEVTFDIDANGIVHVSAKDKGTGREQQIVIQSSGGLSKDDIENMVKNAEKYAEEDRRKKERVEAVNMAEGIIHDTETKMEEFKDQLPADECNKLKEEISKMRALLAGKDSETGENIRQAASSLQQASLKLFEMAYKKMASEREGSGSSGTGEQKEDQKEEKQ

Tests used:
[1] = target: pyruvate kinase muscle 2 (PKM2), mouse (mouse (endogenous in peritoneal macrophages)) (UniProt P52480); test: affinity purification with mass spectrometry; WT murine peritoneal macrophages treated with 20 ug/ml oxLDL for 3 h; 1 mg lysate protein with 2 ug anti-PKM2 IgG at 4 C overnight, A/G agarose beads, SDS-PAGE, gel lanes to mass spectrometry; blank gel and control IgG IP as negative controls
[2] = target: pyruvate kinase muscle 2 (PKM2), mouse (mouse (endogenous in peritoneal macrophages)) (UniProt P52480); test: as above; remark: listed apart in the source
[3] = target: pyruvate kinase muscle 2 (PKM2), mouse (mouse (endogenous in peritoneal macrophages)) (UniProt P52480); test: affinity purification with mass spectrometry; control WT murine peritoneal macrophages without oxLDL treatment; anti-PKM2 IP as in the treated samples, gel lanes to mass spectrometry

GRP75, mouse (from UniProt P38647 47-679)
binding [1]: binds

B1: UQCRC1, a subunit of ETC complex III, mouse (protein, UniProt Q9CZ13 35-480)
chain: TATFAQALQSVPETQVSILDNGLRVASEQSSHATCTVGVWIDAGSRYETEKNNGAGYFLEHLAFKGTKNRPGNALEKEVESIGAHLNAYSTREHTAYLIKALSKDLPKVVELLADIVQNSSLEDSQIEKERDVILREMQENDASMQNVVFDYLHATAFQGTPLAQAVEGPSENVRRLSRTDLTDYLNRHYKAPRMVLAAAGGVEHQQLLDLAQKHLSSVSRVYEEDAVPGLTPCRFTGSEIRHRDDALPLAHVAIAVEGPGWANPDNVTLQVANAIIGHYDCTYGGGVHLSSPLASVAVANKLCQSFQTFNISYSDTGLLGAHFVCDAMSIDDMVFFLQGQWMRLCTSATESEVTRGKNILRNALVSHLDGTTPVCEDIGRSLLTYGRRIPLAEWESRIQEVDAQMLRDICSKYFYDQCPAVAGYGPIEQLPDYNRIRSGMFWLRF
binding [2]: binds | binding [3]: no binding (only cells without oxLDL treatment)
